Results taken from patent publication US5993803A, “Method of reducing the severity of host vs graft reaction by down-regulating hsp60 autoimmunity” (Yeda Research and Development Co., Ltd., priority 1996, dated 1999).
At least one peptide structure holds a part that was inferred or is arguable (an end, a ring closure or a residue). Where no end group is shown, it is not given here.

Tested on: spleen cells of treated NOD or C57BL mice stimulated with irradiated BALB/c spleen cells
Assay: Mixed lymphocyte reaction (MLR) of spleen cells from treated, grafted mice with irradiated BALB/c spleen cells
Format: cell-based, mouse
Conditions: spleen cells taken 20 days after grafting, hsp60 and p12 treated mice pooled
Excerpt: T cells reactive to hsp60 and other hsp molecules have been isolated from cardiac allografts (Moliterno et al., 1995) as well as from other inflammatory lesions (Selmaj et al., 1991; Mor et al., 1992). […] It is theorized that the constitutive hyper-expression of hsp60 in the donor Eα-hsp60 skin amplifies the activation of anti-hsp60 autoimmune T cells at the site and enhance the local immune response by adding pro-inflammatory (TH1-type) cytokines, such as INFγ (Finkelman et al., 1990), to the allograft reaction, thereby inciting and abetting other T cells responsive to the foreign antigens. Conversely, hsp60 autoimmune T cells that have been activated to produce anti-inflammatory cytokines of the TH2-type, such as IL-10, should serve to shut down the effector immune reaction by a form of by-stander suppression (Weiner et al., 1994). To test whether treatment with hsp60 peptides might modify the cytokine response, NOD or C57BL mice were treated with hsp60 or with hsp60 peptide p12. Control mice were untreated or were treated with saline emulsified in IFA. The mice were grafted with BALB/c skin grafts and twenty days later, just at the beginning of graft rejection in the control mice, groups of 5-10 mice were sacrificed and their spleen cells assayed individually in a standard mixed lymphocyte reaction (MLR) with irradiated BALB/c spleen cells as stimulators (Lohse et al., 1990). […]

Sequence: EEIAQVATISANGDKDIGNI [p12]
- IL-10 produced in MLR media (control mice 3.5±0.6, p=0.004): 8 ± 1.4 ng/mL
- IFNγ produced in MLR media (control mice 9.25±1.7, p=0.002): 3.13 ± 1.4 ng/mL
